The values that follow come from patent publication EP0296574A2 (F. HOFFMANN-LA ROCHE AG, priority 1987, dated 1988).

Series [1] can be described thus: general procedure: Boc solid-phase peptide synthesis; BHA resin; symmetrical anhydrides of Boc amino acids. The settings on record: whole synthesis.
The nature of series [2]: general procedure: Boc solid-phase peptide synthesis; benzhydrylamine (BHA) resin, styrene-1% divinylbenzene, 200-400 mesh (Beckman Instruments); symmetrical anhydrides of Boc amino acids. The settings on record: for isolated yield: whole synthesis; for step yield: late stage modification step.

For part of these data: HELM strings list residues between dots; [ac] is acetyl, [am] amide, other brackets name non-standard units. [ ]: non-standard residue; d: D form. NMeF = CN[C@@H](Cc1ccccc1)C(=O)O; Nle = CCCC[C@H](N)C(=O)O

Ac-Y[Nle]GW[Nle]T[NMeF]-NH2 yielded a crude mass in series [1] (scale 0.4 mmol) of 480 mg. For the same substance, the isolated yield in series [2] worked out at 31%.
Regarding “PEPTIDE1{[ac].[Tyr(SO3H)].[Nle].G.W.[Nle].[Thr(SO3H)].[NMePhe].[am]}$$$$V2.0”, in series [2], the step yield was found to be 66%.
On the same count and under the same terms, as for “PEPTIDE1{[ac].[Tyr(SO3H)].G.W.M.[Thr(SO3H)].[NMePhe].[am]}$$$$V2.0”, the figure is 61%.
Ac-YGWMT[NMeF]-NH2: the crude mass in series [1] (scale 0.3 mmol) is reported as 110 mg. This substance showed an isolated yield in series [2] of 11.6%.
